How the values were obtained:
CYP2C9 = assay: in vitro; format: in vitro ADME; conditions: human, mRNA levels EC50, donor 2, 72 h
CYP2C19 = assay: in vitro; format: in vitro ADME; conditions: human
Study 1 = format: in vivo, human; conditions: single 25-mg oral dose of [14C]-esmethadone
CYP2C8 = assay: in vitro; format: in vitro ADME; conditions: human, mRNA levels EC50, donor 2, 72 h

**Q.** Which EC50 at 72 h (CYP2C9) does the source give for `CCC(=O)C(C[C@H](C)N(C)C)(c1ccccc1)c1ccccc1` [esmethadone] here?
**A.** Its EC50 at 72 h is 6.31 µM.

**Q.** What about the EC50 at 72 h (CYP2C19) of the same compound?
**A.** The EC50 at 72 h was 6.68 µM.

**Q.** What about the “Radioactivity excreted in feces” value (Study 1) of the same compound?
**A.** Its value is 39.1 % of the dose.

**Q.** And the EC50 at 72 h (CYP2C8)?
**A.** Its EC50 at 72 h is 6.42 µM.

Reference: publication PMC11035515 (Drugs in R&D, 2023)
